From article PMC4536793
These are yes or no findings as the source states them, for the method shown. In cells and extracts the contact can be indirect. Some results given as binding are weak or reduced against the parent protein; the word gives no strength. Tags and fused reporters may be left off the sequences shown. Values belong to the binder of their own block, whether it stands above or below them.

Assays:
TAP-Mmi1 (S. pombe) = molecular target: T1, TAP-Mmi1 (S. pombe) (UniProt O74958); assay: co-IP; whole cell extracts of S. pombe grown in YE at 32°C, mock-treated or treated with RNase cocktail (30 min, room temperature); TAP-tagged protein precipitated on magnetic beads coated with anti-protein A antibody, 2 h at 4°C; lysis buffer 20 mM Tris HCl, 140 mM KCl, 1.8 mM MgCl2, 0.1% NP-40; washes with 10% glycerol and 0.2 mg/ml heparin; Western blot against myc or TAP; Ccr4-Chp1 also tested in cells lacking Mmi1
T1 sequence: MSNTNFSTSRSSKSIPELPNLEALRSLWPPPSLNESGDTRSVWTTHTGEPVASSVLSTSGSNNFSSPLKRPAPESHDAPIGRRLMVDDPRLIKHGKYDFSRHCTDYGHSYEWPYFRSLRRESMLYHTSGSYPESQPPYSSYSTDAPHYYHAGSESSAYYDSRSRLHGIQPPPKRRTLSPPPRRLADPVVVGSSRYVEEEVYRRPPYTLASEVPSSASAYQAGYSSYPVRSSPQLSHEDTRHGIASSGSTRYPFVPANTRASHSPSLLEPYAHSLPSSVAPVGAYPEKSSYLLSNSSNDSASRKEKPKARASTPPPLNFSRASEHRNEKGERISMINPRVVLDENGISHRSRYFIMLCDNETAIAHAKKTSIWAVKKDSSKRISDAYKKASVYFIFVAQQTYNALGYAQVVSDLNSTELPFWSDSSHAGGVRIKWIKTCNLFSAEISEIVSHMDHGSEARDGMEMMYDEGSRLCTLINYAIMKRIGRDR

[1] = molecular target: T2, Ccr4 (TAP-tagged, Fig. 6a) (S. pombe) (UniProt O74874); assay: as above
T2 sequence: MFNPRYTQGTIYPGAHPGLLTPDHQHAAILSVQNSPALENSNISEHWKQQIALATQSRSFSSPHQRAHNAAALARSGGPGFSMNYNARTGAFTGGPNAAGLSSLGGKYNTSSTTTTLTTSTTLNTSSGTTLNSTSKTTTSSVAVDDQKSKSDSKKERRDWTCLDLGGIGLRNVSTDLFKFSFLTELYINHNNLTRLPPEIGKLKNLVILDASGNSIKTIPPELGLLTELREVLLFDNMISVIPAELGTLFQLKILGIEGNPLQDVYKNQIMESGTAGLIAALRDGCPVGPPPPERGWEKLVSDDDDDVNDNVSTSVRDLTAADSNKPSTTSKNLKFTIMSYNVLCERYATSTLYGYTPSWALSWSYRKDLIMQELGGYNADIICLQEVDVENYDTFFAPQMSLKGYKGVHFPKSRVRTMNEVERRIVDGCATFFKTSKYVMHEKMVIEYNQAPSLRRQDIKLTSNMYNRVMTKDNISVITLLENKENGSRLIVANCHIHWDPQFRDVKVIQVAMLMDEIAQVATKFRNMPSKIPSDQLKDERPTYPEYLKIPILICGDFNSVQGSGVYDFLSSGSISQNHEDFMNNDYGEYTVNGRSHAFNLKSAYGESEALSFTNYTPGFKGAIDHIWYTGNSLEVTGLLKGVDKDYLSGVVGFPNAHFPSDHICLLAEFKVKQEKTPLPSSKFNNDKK

binding (TAP-Mmi1 (S. pombe)): binds
B1: Red1-myc (protein, UniProt Q9UTR8 1-712)
chain: MSRSINLDELRKKALESKKKNEEDESNDSDKEDGEISEDDPVIDQSNSVPPMKVPTFPEQIPQLPPFDRFPGTNANFFPFGAPFMLPPALMFGPNTVPFFPQTASSNKTFSKRKRSSENSFNNRNKAKSSETSDSSNTSQSFKENRALKDTATSRPLALSSDTSYQKSEKAKSEKSPFLSTSKNSDANYSKTTNQKEAEKAVSQLFEVGVRFNDFIAEGIEPSVVHTLFLKLGLDSSSASSQGSLTLSADKAARSAKLRKIDSNLSDTHILPGDNGTPTVLPERKNLISLPLLKQDDWLSSSKPFGSSTPNVVIEFDSDDDGDDFSNSKIEQSNLEKPPSNSENGLTMSRSDYLALLRNKEEEIRRMTKLILRLESNKKPYRSPTSAADMKLPSVPVAAVDNKSKTHLDTFEKVVDLSSKADFVEAGPSISSSGASSSAATTNSDTTEQILEAPWLRKTEQIAVVHEEHPAQIKKSEIDILNNLIEKEEGELTKYQTLVKSKTEILTQLYTRKKQLLEQQGKGNVACLPKESDLSMDSITEVSAQADENSSQILSSKTSNAPNGTTETDFEDKVPLVDYISPFYRFKSYRFNQQFVERVPLKYRSLTYSNKIEPMKVFCKYETTGGVCNDDHCEASHFRDIKMTDDEIIQDLSRYIEGNDEIEKESYKSGLDIVMKNTDENTDFVDVATRIVEYHNLWKSERMTIPVAKVSI

binding (TAP-Mmi1 (S. pombe)): binds
B2: Ccr4 (myc-tagged, Fig. 2b) (protein, UniProt O74874 1-690)
chain: T2 sequence

binding [1]: binds
B3: Chp1-myc (protein, UniProt Q10103 1-960)
chain: MVSVKPLPDIDSNEGETDADVYEVEDILADRVNKNGINEYYIKWAGYDWYDNTWEPEQNLFGAEKVLKKWKKRKKLIAKGLLEPFDAEDNEAKKMKREKEILRQQRQKRKSELTQLSQKVKEKFKKMRKKPARRIVTIANDEEEEDDQTMDEDAFERKSMQGELKERNLTDKTSTLSTSFGETSPDVNPFYLSEWPTVTDSILLSKSLSSDAIPLKNGEIKSTMLMPSDSDNSVPGIQNSNNLENTGAFVENANSPQSNTPLSTFRHSSPLSLSPVITSDNDVANSLFFSNSTPLPSSLKIKKEAPKLETHTILVSDNSGSLTKQDILSYFAFIKGNIEVFFLKSPKKDKVCNMAYIQFDSIEQAKLAYDKGHPSWHVTLVKGKISTDMEECKVSKSILKTTPSKKANARSVSFTQTTTDTLSESEKFASNVDLDENFDFNVNVTNEDAKQLKKSVIGSSWTTVNNDWNSVSKSDQTFENDGASKVVPAGNITLNSDNSLHHSISESEDLSSASTLSDYFRFVLRVGKSLYYAGELSFDISKLKAETEHQQLLRSLVSCKQVDVLRFVTSQYLEVFGTCLTKVLSGSLCIRSDVDMTHFKNILNRGNGAGIVLGSNYTLLLFTEDNNALMNLYDCQGQSNSPFWMVIFEPLESILVEWSAKNLRPKKPYHKSQSYLSYLLQLGHIDLHKIGAFQATQILIVSKQPSPEAEELEDTFREAAIPTFRGLEIPESLFLSQNVFVFLNVSLEDDFDQLQFLTLAKRKSCKFFLFGLSLPLKSPNDSHVGTDFKKNNEPLDKLTYSQYLRPMFPKGGVVSVTLSALIKTPRLLELISPFLEIKKDSWILILPPSIVDMVKSYFVTNNPDKSLLEIQNLLNTLQRYLTNPALKNVTLYQDWDIVIDDSADVSLASTLQLYQKKNYDKYRRFVLIHELKNELTPVNGLDIVDYDEFKETFMRAIGLK
